The values below come from PubChem BioAssay AID2685 (National Center for Advancing Translational Sciences (NCATS), 2010).

Structures are written as SMILES. Some of the results follow. Shown are side measurements of this screen, not its main read-out; they come without a call. Most of these compounds were active or inconclusive in the main read-out, so they are no random draw. Words in brackets tell the shape of the fitted curve; partial curves, single points and poor fits give uncertain potencies.

This assay is described as follows: qHTS Assay for Lipid Storage Modulators in Drosophila S3 Cells.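 On cell number change: cells counted by Cell Tracker Red CMTPX staining in the red channel.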 The following applies: BODIPY lipid droplet fluorescence, 18-24 h; for cell number change: measured here: cell count max response, cells fed with added oleic acid. The method, boiled down: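 Drosophila S3 cells loaded with oleic acid (400 uM, as added) and compounds at several concentrations; lipid droplets imaged by 488-nm laser-scanning cytometry, 500–530 nm intensity and object ratio to cell channel. Percent activity normalized to 20 uM Triacsin C.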
In general terms: In qHTS, concentration-response curves come from the screen itself.

Where [1] appears, read: measured here: cell number channel AC50, cells fed with added oleic acid.
The mark [2] stands for this setting: measured here: lipid fluorescence (Fed channel) AC50, cells fed with added oleic acid.

Turning to `Cc1ccc(SCCC(=O)OCn2nnc3ccccc3c2=O)cc1`, the cell number change came out at 26.3%.

For the compound `COC(=O)c1ccc(/C=N/OCC(=O)NCCc2ccc(OC)c(OC)c2)cc1`, the cell number change is -10.8%.

By AC50 is commonly meant the concentration at which the activity in the assay is half-maximal. A low value points to greater potency. Turning to `Cc1ccc(NC(=O)c2ccc(Cl)c(S(=O)(=O)Nc3c(C)n(C)n(-c4ccccc4)c3=O)c2)cc1Cl`, the cell number change is -9.43%. The AC50 under setting [1] is 0.411 µM [falling, full curve, poor fit].

Regarding `CC/C(=N\NC(=O)C1CC1)c1cccc(Cl)c1`, the AC50 under setting [1] is 2.59 µM [rising, partial curve] and the AC50 under setting [2] was 1.64 µM [rising, partial curve].

With `Cc1cc(=O)n(Cc2ccccc2)c(O)c1C#N`, the cell number change was -20.8%. For the same compound, the concentration at half-maximal activity (AC50) under setting [2] is 0.651 µM [rising, single point].

Regarding `O=S(=O)(c1ccccc1)N1CCN(C(=S)Nc2ccccc2Cl)CC1`, the cell number change is -19.8%. In addition, the AC50 under setting [2] is 6.51 µM [rising, single point].

With `CCOC(=O)C(C)n1cnc2c(nnn2Cc2ccc(Cl)cc2)c1=O` (stereo not drawn), the cell number change came out at 14.6%. Also, under setting [2], the concentration at half-maximal activity (AC50) was 0.651 µM [falling, full curve, poor fit].

Turning to `C=C(C)CCC(C)N1CCC(n2nccc2NC(=O)CCCc2ccccc2)CC1` (stereo not drawn), under setting [2], the AC50 is 29.1 µM [falling, single point].

In the case of `Cc1cc(C)cc(-c2nnc(SCC(=O)c3c(N)n(C4CC4)c(=O)[nH]c3=O)o2)c1`, the cell number change is -15%.

`Cn1nc(C(=O)Nc2ccc(S(=O)(=O)N3CCCCC3)cc2)c2ccccc2c1=O`: the cell number change was 24.6%. The half-maximal activity concentration (AC50) under setting [1] was 0.00517 µM [rising, full curve, poor fit]. The AC50 under setting [2] was 29.1 µM [rising, single point].

As to `CCOC(=O)N1CCN(C(=O)CN(C2CCCCC2)S(=O)(=O)c2ccc(F)cc2)CC1`, the AC50 under setting [2] is 1.84 µM [rising, partial curve].

Turning to `C=CCC1C=C(Cc2ccccc2)CC(CC=C)N1` (stereo not drawn), the cell number change is -2.44%. Also, the half-maximal activity concentration (AC50) under setting [2] was 2.91 µM [rising, single point].

`COc1ccc(C(=O)Oc2ccc3oc(=O)sc3c2)cc1`: the cell number change is -5.01%. Under setting [2], the AC50 is 29.1 µM [falling, partial curve].

`CC1(C)C(C=C(Cl)Cl)C1C(=O)N1CCN(Cc2ccccc2)CC1` (stereo not drawn): the cell number change is -46.4%. Moreover, the concentration at half-maximal activity (AC50) under setting [2] is 6.51 µM [falling, single point].

On to `CC(C)C1Nc2ccc(S(=O)(=O)N3CCOCC3)cc2NC1=O` (stereo not drawn), for which the cell number change worked out at 0.271%. The AC50 under setting [1] is 0.58 µM [rising, single point]. Moreover, under setting [2], the half-maximal activity concentration (AC50) was 0.651 µM [rising, partial curve, poor fit].

`COc1cccc(C(=O)NCCS(=O)(=O)N2CCOCC2)c1`: the cell number change was 9.81%. Also, the concentration at half-maximal activity (AC50) under setting [2] was 3.66 µM [falling, full curve].

As for `CN(C)c1ccc(/C=N/NC(=O)c2cc(=O)[nH]c3ccccc23)cc1`, the cell number change is -12.2%. Also, the AC50 under setting [1] is 6.51 µM [falling, single point].

For `COc1ccc(-c2c(C(F)(F)F)nn(C)c2NC(=O)c2ccco2)cc1`, the cell number change amounted to 12.1%. In addition, the half-maximal activity concentration (AC50) under setting [2] is 5.8 µM [rising, full curve].

Turning to `Cn1c(=O)[nH]c(=O)c2c1nc(SCCN1CCOCC1)n2Cc1ccccc1`, the cell number change was -22.9%. Moreover, the AC50 under setting [2] was 29.1 µM [falling, single point].

As for `O=S(=O)(Nc1nc2ccccc2nc1Cl)c1ccc2ccccc2c1`, the cell number change turned out to be 39.4%. Moreover, under setting [1], the AC50 was 14.6 µM [rising, single point]. Also, the AC50 under setting [2] is 1.03 µM [rising, full curve, poor fit].

As to `CCc1ccc(Nc2n[n+](-c3ccccc3)c(-c3ccc(C(=O)O)cc3)s2)cc1`, the cell number change was 14.9%. Besides, the AC50 under setting [2] is 11.6 µM [rising, single point].

In the case of `CC(=O)Nc1nc2c(c3c1c(=O)oc1ccccc13)CC(C)CC2` (stereo not drawn), the cell number change was determined as 18.6%. Further, the AC50 under setting [2] was 32.6 µM [rising, partial curve, poor fit].

For `CCc1ccc(NC(=O)C(=O)N/N=C(\C)CC(=O)NCc2ccc(Cl)cc2)cc1`, the cell number change was -0.993%.

In the case of `Cc1ccc(S(=O)(=O)N2CCN(C(=O)CSc3nnc(-c4ccco4)o3)CC2)cc1`, the AC50 under setting [2] was 0.092 µM [falling, full curve].

On to `Oc1ccc(-c2cc(-c3ccc(O)cc3)nc(-c3ccccc3)n2)cc1`, for which the cell number change was -52.4%. The concentration at half-maximal activity (AC50) under setting [1] was 29.1 µM [falling, single point]. Also, under setting [2], the AC50 is 29.1 µM [falling, single point].

In the case of `COc1ccc(Cc2nc3ccc(C(=O)N4CCOCC4)cc3o2)cc1`, the cell number change came to 27.2%. Moreover, under setting [2], the AC50 was 0.058 µM [rising, full curve, poor fit].

Take `C=CCN1C(=O)/C(=C2/Sc3ccc(OC)cc3N2C)SC1=Nc1ccc(OC)cc1`: the cell number change is 17.6%.

As to `CCSc1ncc(C)cc1[N+](=O)[O-]`, the cell number change is -39.4%. Further, the AC50 under setting [1] is 6.51 µM [falling, partial curve, poor fit].

Consider `[O-][n+]1onc2c3cc(-c4ccccc4)nnc3ccc21`, for which the cell number change was -0.939%. Moreover, the AC50 under setting [1] was 0.731 µM [falling, single point]. The AC50 under setting [2] was 0.731 µM [falling, single point].

For the compound `CCOc1ccc2nc(NCCNC(=O)Nc3cccc(C)c3)c(C#N)cc2c1`, the cell number change is -57.5%. The AC50 under setting [1] is 16.4 µM [falling, partial curve]. For the same compound, under setting [2], the concentration at half-maximal activity (AC50) is 18.4 µM [falling, single point].

For `O=c1oc2ccccc2cc1-c1nnc(NCc2ccco2)s1`, the concentration at half-maximal activity (AC50) by setting is: under setting [1], 4.11 µM [rising, partial curve, poor fit]; under setting [2], 5.8 µM [rising, partial curve].

For `Cc1cc(C(F)(F)F)c(C#N)c(N2CCOCC2)n1`, the cell number change is -8.76%. Besides, the AC50 under setting [1] is 0.00517 µM [falling, full curve, poor fit].

In the case of `COc1cc(/C=C/C(=O)c2ccc3c(c2)OCO3)cc(OC)c1OC`, the cell number change was -1.67%. Moreover, the concentration at half-maximal activity (AC50) under setting [2] is 29.1 µM [rising, single point].

As to `Cc1ccc(SCCNC(=O)c2ccccc2C)cc1`, the AC50 under setting [2] is 0.731 µM [rising, single point].

In the case of `CCCN1C2CCCC1CC(NC(=O)c1ccccc1F)C2` (stereo not drawn), the cell number change was -2.86%. Moreover, under setting [1], the half-maximal activity concentration (AC50) was 0.651 µM [falling, single point].

With `CCOC(=O)N1CCC2(CC1)C(C(=O)C13CC4CC(CC(C4)C1)C3)C2(C#N)C#N` (stereo not drawn), the cell number change amounted to 9.48%. For the same compound, the AC50 under setting [2] was 6.51 µM [falling, single point].

As to `Cc1cccc(Nc2ncc3c(n2)CC(c2ccco2)CC3=O)c1` (stereo not drawn), the cell number change is -55.9%. Besides, the AC50 under setting [1] was 16.4 µM [falling, single point].

As to `NC(=O)C1(N2CCCCC2)CCN(C2CC(=O)N(Cc3ccc(N4CCCC4=O)cc3)C2=O)CC1` (stereo not drawn), the cell number change was -46.9%. Further, the AC50 under setting [1] was 29.1 µM [falling, single point].
